Measurements taken from PubChem BioAssay AID1439 (NMMLSC, 2008).
The campaign covered roughly 220,000 compounds. About 770 (0.35%) were called active. Inconclusive means that the source gave no clear call. Such entries were picked first, then a sample of the others. Rule as the data show it: active = binding response below about 49% or above about 150%; inconclusive = no clear call, values can overlap the other calls; inactive = in between.

By UniProt entry, the sequences of proteins in these tests, tags left out.
UniProt P09471, whole entry, looked up: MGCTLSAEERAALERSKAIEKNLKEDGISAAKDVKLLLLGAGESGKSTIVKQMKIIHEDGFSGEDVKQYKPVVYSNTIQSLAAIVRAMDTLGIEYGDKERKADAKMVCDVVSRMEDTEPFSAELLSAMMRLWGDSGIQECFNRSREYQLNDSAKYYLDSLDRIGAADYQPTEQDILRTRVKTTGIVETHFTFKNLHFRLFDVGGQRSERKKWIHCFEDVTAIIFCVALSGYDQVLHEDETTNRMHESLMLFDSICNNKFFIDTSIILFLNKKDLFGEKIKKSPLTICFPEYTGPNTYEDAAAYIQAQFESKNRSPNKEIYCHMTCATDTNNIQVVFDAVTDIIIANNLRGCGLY

Each molecule was assayed against Guanine nucleotide-binding protein G(o) subunit alpha (Homo sapiens) (UniProt P09471) (assay: RGS7-Galphao binding modulators, primary screen, biochemical, multiplexed bead flow cytometry (AID 1439;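 also: fluorescent Galphao held in activated GDP-AlF4 state binding bead-coupled RGS7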)). Conditions: at 10 µM, actives lie on both sides.

| Compound | binding response (% of control) |
| --- | --- |
| Cc1ccc(C(=O)c2ccccc2C(=O)OCC(=O)NC(=O)NC(C)(C)C)cc1 | inconclusive: 111% |
| O=C(CCc1ccccc1)N1CCN(c2ccc([N+](=O)[O-])cc2)CC1 | inactive: 99.2% |
| COc1ccc(/C=C/C(=O)OCC(=O)c2ccc3c(c2)NC(=O)CO3)cc1 | inconclusive: 427% |
| Cc1ccc(OCCn2cccn2)c(C)c1 | inconclusive: 111% |
| Cc1cc2c(=O)oc(-c3ccc(Br)cc3)nc2s1 | inconclusive: 49.1% |
| CC(C)CCC(CCN1CCCC1)c1ccc2c(c1)OCO2 (configuration not stated) | inconclusive: 105% |
| N#C/C(=C/c1ccccc1)C(=O)NCc1ccccc1 | inconclusive: 97% |
| COc1cccc(C2(O)CCN(C(=O)C(C)C)CC2)c1 | inconclusive: 169% |
| CCCCOC(=O)C(NC(=O)c1ccccc1)=C(C)C | active: -15.8% |
| Cc1cccc(C)c1NC(=O)CN1C(=O)NC(C)(CCc2ccccc2)C1=O (configuration not stated) | inactive: 107% |
| CCOC(=O)/C(C#N)=N/Nc1ccccc1OC | inactive: 88% |
| COc1cc(NC(=O)COc2ccc(-n3ccnc3)cc2)cc(OC)c1 | inconclusive: 117% |
| COC(=O)N1CCN(c2ccc(C)cc2)C(C)C1 (configuration not stated) | inconclusive: 104% |
| O=C(Nc1ccc(C(=O)N2CCOCC2)cc1)c1cc(-c2cccnc2)nc2ccc(Cl)cc12 | inconclusive: 81.5% |
| COc1ccc(CSc2nncn2N)cc1[N+](=O)[O-] | inactive: 102% |
| CSc1nn2c(C(F)(F)F)cc(C(F)(F)F)nc2c1C(N)=O | inconclusive: 84.4% |
| O=C(Nc1nc2ccsc2c(=O)s1)c1ccco1 | inconclusive: 98.3% |
| CCOc1cc(/C=N/NC(=S)Nc2ccccc2C(F)(F)F)ccc1OCC(=O)N1CCOCC1 | inactive: 104% |
| COc1ccc(C2C3=C(CCCC3=O)Nc3ccc4ncccc4c32)cc1OC (configuration not stated) | inactive: 111% |
| Cc1ccc(-n2ncc3c(NNC(=O)c4cccs4)ncnc32)cc1 | inactive: 102% |
| O=C(CCCCCN1C(=O)c2cccc3cccc(c23)C1=O)NCc1cccnc1 | inconclusive: -8.63% |
| COc1ccc(/C=N/NC(=O)c2cccnc2)c(C(=O)O)c1OC | inconclusive: 92.3% |
| Cc1ccc(S(=O)(=O)Nc2cccc(CP(=O)(c3ccccc3)c3ccccc3)c2)cc1 | inconclusive: 158% |

| Compound | binding response (% of control) |
| --- | --- |
| COc1cc(/C=C/C(=O)OCC(=O)Nc2cc(S(=O)(=O)N(C)C)ccc2Cl)ccc1O | inconclusive: 96% |
| O=C(c1ccccc1)C1CCN(C(=O)Nc2ccccc2)CC1 | inconclusive: 143% |
| CCOc1cc(CN2CCCC(CNC(=O)c3ccc(F)cc3)C2)ccc1OC (configuration not stated) | inconclusive: 40% |
| CCOc1ccccc1N1CCN(C(=O)c2ccncc2)CC1 | inactive: 103% |
| Cc1[nH]n(-c2nc(-c3ccc(Cl)cc3)cs2)c(=O)c1N=Nc1ccc(O)cc1 | inactive: 101% |
| COc1cccc(CNc2nc(-c3cccnc3)nc3ccccc23)c1 | inconclusive: 89.3% |
| COc1cccc(CNC(=O)C2CCC(CNc3c(N4CCC(C)CC4)c(=O)c3=O)CC2)c1 (configuration not stated) | inconclusive: 271% |
| O=C(N/N=C/c1cccs1)c1cccnc1 | inconclusive: 89.7% |
| Cc1ccc(Sc2c(O)c3ccccc3n(C)c2=O)cc1 | inactive: 91% |
| Cc1ccc(CNC(=O)c2ccc3c(=O)c(O)c(-c4ccc(C)cc4)[nH]c3c2)cc1 | inconclusive: 107% |
| CC1(C)Cc2c(c(=S)nc(-c3ccccc3)n2Cc2cccnc2)CO1 | inconclusive: 78.8% |
| Cc1cc(C)cc(NC(=O)Nc2ccc(-n3ccc(C(F)(F)F)n3)cc2)c1 | inconclusive: 97.7% |
| Cc1ccc([N+](=O)[O-])cc1NC(=O)Nc1ccc(S(N)(=O)=O)cc1 | inconclusive: 1.07% |
| CCOc1ncccc1C(=O)Nc1cccc(-c2nc3cccnc3s2)c1 | inconclusive: 108% |
| Cc1cccn2c(CN3CCNC(=O)CC3)c(C(=O)N(C)CCc3ccccc3)nc12 | inactive: 97.4% |
| O=C(O)c1cccnc1SC1CC(=O)N(c2ccccc2)C1=O (configuration not stated) | inconclusive: 96.8% |
| Cc1nc2cc(C(=O)N3CCc4ccccc43)ccc2n1-c1ccc(F)c(F)c1 | inactive: 96.3% |
| Cc1cc(=O)nc2c3ccccc3n(CC(=O)Nc3ccccc3Br)n12 | inconclusive: 25.2% |
| Cc1ccc(C)n1-c1ncc(Br)cn1 | inconclusive: 111% |
| Cc1nc(-c2ccc(-n3nncc3-c3ccco3)cc2)cs1 | inconclusive: 167% |
| COc1cccc(F)c1C(C[N+](=O)[O-])c1c(N)n(C)c(=O)n(C)c1=O (configuration not stated) | inconclusive: 101% |
| CCN1CCCc2cc(CN(CCN3CCOCC3)C(=S)Nc3cccc(OC)c3)ccc21 | inactive: 103% |
| CN(C)S(=O)(=O)c1cccc(NC(=S)N/N=C/c2ccco2)c1 | inconclusive: 169% |

Pulled by structure from the entries so far, 2 records:

| Compound | binding response (% of control) |
| --- | --- |
| Cc1ccc(CNC(=O)c2ccc3c(=O)c(O)c(-c4ccc(C)cc4)[nH]c3c2)cc1 | inconclusive: 107% |
| Cc1[nH]n(-c2nc(-c3ccc(Cl)cc3)cs2)c(=O)c1N=Nc1ccc(O)cc1 | inactive: 101% |

Continuation:

| Compound | binding response (% of control) |
| --- | --- |
| O=[N+]([O-])c1ccc(OCC(O)CNCCNc2nccc(C(F)(F)F)n2)cc1 (configuration not stated) | inconclusive: 90.2% |
| Cc1nn(C)cc1CN1CCCC(C(=O)c2ccc(-c3ccccc3)cc2)C1 (configuration not stated) | inactive: 101% |
| CN1C[C@@H]2C(c3ccc(Cl)nc3)C3(c4ccccc4)CC2(C3)[C@H]1c1ccccc1 (some centres not stated) | inconclusive: 126% |
| O=C(O)CCCCCN1C(=O)/C(=C\c2cn(-c3ccccc3)nc2-c2cccs2)SC1=S | inconclusive: 109% |
| CC(=O)c1ccc(NS(=O)(=O)c2c(C)cc(C)cc2C)cc1 | inactive: 93.2% |
| CC(C)CCn1cnc2c(oc3nc4c(cc32)CCCC4)c1=O | inconclusive: 121% |
| COc1cc2oc(-c3ccc(O)cc3)cc(=O)c2c(O)c1OC | inconclusive: 120% |
| CC(C)(C)OC(=O)N1CCC[C@H]1C(=O)N/N=C/c1cccc2cccnc12 | inconclusive: 82.4% |
| Cc1[nH]c(C)c2c(=O)n(Cc3ccc(Cl)cc3)ncc12 | inconclusive: 98% |
| COc1ccc(OC)c(-n2c(-c3ccc(O)cc3O)n[nH]c2=S)c1 | inconclusive: 119% |
| CCOC(=O)Cn1nc(C)c(NC(=O)COc2ccc(OC)cc2)c1C | inconclusive: 102% |
| O=C(O)COc1ccc2oc3ccccc3c2c1 | inconclusive: 83.2% |
| CC1CCc2sc(C(=O)N/N=C/c3ccc(O)cc3)cc2C1 (configuration not stated) | inconclusive: 112% |
| CCOC(=O)C(C)Oc1ncnc2cccc(F)c12 (configuration not stated) | inconclusive: 106% |
| O=C(COc1ccc(Br)cc1)N1CCc2ccccc2C1 | inconclusive: 99.4% |
| CC(=O)NC(CC(=O)O)c1ccc([N+](=O)[O-])cc1 (configuration not stated) | inconclusive: 86.6% |
| C=CCc1c(N(CC)CC)nc(C)[nH]c1=O | inconclusive: 81.5% |
| Cc1cc(C(=O)COC(=O)CCc2nc3ccccc3c(=O)[nH]2)c(C)n1CC1CCCO1 (configuration not stated) | inconclusive: 140% |
| Clc1cccc(-c2cc3nc4c(c(NCc5ccco5)n3n2)CCCC4)c1 | inactive: 98.8% |
| Cc1cc(C)n2c(nc3ccccc32)c1C(=O)NN | inconclusive: 93.5% |
| COC(=O)c1ccc(S(=O)(=O)NCc2ccco2)n1C | inconclusive: 130% |
| S=c1nc[nH]c2c1ncn2C1CCCC1 | inconclusive: 49% |
| CSC(=Nc1ccccc1)C(C#N)c1nc2ccccc2[nH]1 (configuration not stated) | inconclusive: 51.6% |

In a second layout: results already given
Compound	binding response (% of control)
O=C(O)c1cccnc1SC1CC(=O)N(c2ccccc2)C1=O (configuration not stated)	inconclusive: 96.8%
Cc1nc2cc(C(=O)N3CCc4ccccc43)ccc2n1-c1ccc(F)c(F)c1	inactive: 96.3%
Cc1cc(=O)nc2c3ccccc3n(CC(=O)Nc3ccccc3Br)n12	inconclusive: 25.2%
Cc1ccc(C)n1-c1ncc(Br)cn1	inconclusive: 111%
Cc1nc(-c2ccc(-n3nncc3-c3ccco3)cc2)cs1	inconclusive: 167%
COc1cccc(F)c1C(C[N+](=O)[O-])c1c(N)n(C)c(=O)n(C)c1=O (configuration not stated)	inconclusive: 101%
CCN1CCCc2cc(CN(CCN3CCOCC3)C(=S)Nc3cccc(OC)c3)ccc21	inactive: 103%
CN(C)S(=O)(=O)c1cccc(NC(=S)N/N=C/c2ccco2)c1	inconclusive: 169%
O=[N+]([O-])c1ccc(OCC(O)CNCCNc2nccc(C(F)(F)F)n2)cc1 (configuration not stated)	inconclusive: 90.2%
Cc1nn(C)cc1CN1CCCC(C(=O)c2ccc(-c3ccccc3)cc2)C1 (configuration not stated)	inactive: 101%
CN1C[C@@H]2C(c3ccc(Cl)nc3)C3(c4ccccc4)CC2(C3)[C@H]1c1ccccc1 (some centres not stated)	inconclusive: 126%
O=C(O)CCCCCN1C(=O)/C(=C\c2cn(-c3ccccc3)nc2-c2cccs2)SC1=S	inconclusive: 109%
CC(=O)c1ccc(NS(=O)(=O)c2c(C)cc(C)cc2C)cc1	inactive: 93.2%
CC(C)CCn1cnc2c(oc3nc4c(cc32)CCCC4)c1=O	inconclusive: 121%
COc1cc2oc(-c3ccc(O)cc3)cc(=O)c2c(O)c1OC	inconclusive: 120%
CC(C)(C)OC(=O)N1CCC[C@H]1C(=O)N/N=C/c1cccc2cccnc12	inconclusive: 82.4%
Cc1[nH]c(C)c2c(=O)n(Cc3ccc(Cl)cc3)ncc12	inconclusive: 98%
COc1ccc(OC)c(-n2c(-c3ccc(O)cc3O)n[nH]c2=S)c1	inconclusive: 119%
CCOC(=O)Cn1nc(C)c(NC(=O)COc2ccc(OC)cc2)c1C	inconclusive: 102%
O=C(O)COc1ccc2oc3ccccc3c2c1	inconclusive: 83.2%
CC1CCc2sc(C(=O)N/N=C/c3ccc(O)cc3)cc2C1 (configuration not stated)	inconclusive: 112%
CCOC(=O)C(C)Oc1ncnc2cccc(F)c12 (configuration not stated)	inconclusive: 106%
O=C(COc1ccc(Br)cc1)N1CCc2ccccc2C1	inconclusive: 99.4%
CC(=O)NC(CC(=O)O)c1ccc([N+](=O)[O-])cc1 (configuration not stated)	inconclusive: 86.6%
C=CCc1c(N(CC)CC)nc(C)[nH]c1=O	inconclusive: 81.5%
Cc1cc(C(=O)COC(=O)CCc2nc3ccccc3c(=O)[nH]2)c(C)n1CC1CCCO1 (configuration not stated)	inconclusive: 140%
Clc1cccc(-c2cc3nc4c(c(NCc5ccco5)n3n2)CCCC4)c1	inactive: 98.8%
Cc1cc(C)n2c(nc3ccccc32)c1C(=O)NN	inconclusive: 93.5%

(cont.)

| Compound | binding response (% of control) |
| --- | --- |
| CCOC(=O)c1ccc(NNC(=O)CC)c([N+](=O)[O-])c1 | inactive: 101% |
| O=C(O)CCCN1C(=O)/C(=C/c2ccncc2)SC1=S | inconclusive: 526% |
| Cc1ccc(-n2c(SC3CCOC3=O)nc3ccccc3c2=O)cc1 (configuration not stated) | inconclusive: 100% |
| CCOC(=O)C1CCN(C(=O)C(CC)c2ccccc2)CC1 (configuration not stated) | inconclusive: 100% |
| O=C(c1ccoc1)N1CCC2(CC1)Oc1ccc(Cl)cc1C(=O)C21CC(c2ccccc2)=NO1 (configuration not stated) | inconclusive: 35.7% |
| CCOC(=O)c1nc(-c2ccccc2)sc1C(C)=O | inconclusive: 45.1% |
| Cc1[nH]n(C)c(=O)c1N=Nc1ccc(S(C)(=O)=O)cc1 | inconclusive: 138% |
| Nc1nc(-c2ccc(Cl)cc2)nc(-c2ccc(Cl)cc2)n1 | inconclusive: 116% |
| O=C(CSc1ccccc1C(=O)O)NC12CC3CC(CC(C3)C1)C2 | inconclusive: 33.9% |
| Cc1sc2nc(CN(C(=O)NCc3ccccc3)C3CCCC3)[nH]c(=O)c2c1C | inconclusive: 83.2% |
| O=C(c1ccccc1)c1cnc2ccc(Cl)cc2c1N1CCOCC1 | inconclusive: 100% |
| CCOC(=O)c1sc2nccc(OC)c2c1N=CN(C)C | inactive: 97.1% |
| COc1cc(NCCC(=O)c2cccs2)c(OC)cc1Cl | inconclusive: 94.9% |
| Cc1cc(C(=O)COC(=O)c2cccnc2Cl)c(C)n1-c1c(C)n(C)n(-c2ccccc2)c1=O | inactive: 106% |
| CCOC(=O)CC(N)c1cccc([N+](=O)[O-])c1 (configuration not stated) | inactive: 101% |
| COc1ccc(N(CC(=O)Nc2ccccc2C(=O)NCc2ccco2)S(C)(=O)=O)cc1 | inactive: 99.9% |
| O=c1[nH]n2cc(-n3cc([N+](=O)[O-])cn3)cnc2c1Br | inconclusive: 108% |
| COc1ccccc1C1=NOC(Cn2c(NCCOCCO)nc3c2c(=O)n(C)c(=O)n3C)C1 (configuration not stated) | inconclusive: 81.1% |
| COc1ccc(OCCC(=O)N2CCOCC2)cc1 | inconclusive: 113% |
| COc1cccc(CN(C)CC(=O)Nc2ccccc2C(C)C)c1 | inconclusive: 93.4% |
| CNC(=O)n1cc(C)c(-c2cccs2)n1 | inconclusive: 102% |
| O=C(NCC(c1ccco1)N1CCOCC1)c1ccc([N+](=O)[O-])cc1 (configuration not stated) | inconclusive: 110% |
| Cc1ccc(OC(C)C(=O)N(Cc2cccs2)C2CCS(=O)(=O)C2)cc1C (configuration not stated) | inconclusive: 119% |
